From PMC6770663 come the findings set out here.

This assay addresses A-kinase anchoring protein Yotiao (AKAP9) (mouse (endogenous in heart)). The assay is described as follows: co-IP; IP-AC assay: heart extracts from WT, IKs or IKs-AC9KO mice; IP with anti-Yotiao or anti-KCNQ1 against the corresponding IgG; AC activity in the immunoprecipitate measured after stimulation with 300 nM Gαs; AC9 identified by loss of the activity in AC9KO hearts.

No constants are given. Whether binding was seen depends on the method and setting. In cells and extracts the contact can be indirect. Binding calls can cover weak binding; strength is not graded here.

B1: adenylyl cyclase Type 9 (AC9) (enzyme, UniProt P51830 1-1353)
chain: MASSPHQQLLHHHSTEVSCDSSGDSNSVRVKINPKQLSSNTHPKHCKYSISSSCSSSGDSGGLPRRVGGGGRLRRQKKLPQLFERASSRWWDPKFDSMNLEEACLERCFPQTQRRFRYALFYVGFACLLWSIYFAVHMKSKVIVMVVPALCFLVVCVGFFLFTFTKLYARHYAWTSLALTLLVFALTLAAQFQVWTPLSGRVDSSNHTLTATPADTCLSQVGSFSICIEVLLLLYTVMQLPLYLSLFLGVVYSVLFETFGYHFRNEDCYPSPGPGALHWELLSRALLHVCIHAIGIHLFVMSQVRSRSTFLKVGQSIMHGKDLEVEKALKERMIHSVMPRIIADDLMKQGDEESENSVKRHATSSPKNRKKKSSIQKAPIAFRPFKMQQIEEVSILFADIVGFTKMSANKSAHALVGLLNDLFGRFDRLCEQTKCEKISTLGDCYYCVAGCPEPRADHAYCCIEMGLGMIKAIEQFCQEKKEMVNMRVGVHTGTVLCGILGMRRFKFDVWSNDVNLANLMEQLGVAGKVHISEATAKYLDDRYEMEDGRVIERLGQSVVADQLKGLKTYLISGQRAKESHCSCAEALLSGFEVIDDSRESSGPRGQGTASPGSVSDLAQTVKTFDNLKTCPSCGITFAPKSEAGAEGGTVQNGCQDEPKTSTKASGGPNSKTQNGLLSPPAEEKLTNSQTSLCEILQEKGRWAGVSLDQSALLPLRFKNIREKTDAHFVDVIKEDSLMKDYFFKPPINQFSLNFLDQELERSYRTSYQEEVIKNSPVKTFASATFSSLLDVFLSTTVFLILSITCFLKYGATATPPPPAALAVFGADLLLEVLSLIVSIRMVFFLEDVMTCTKWLLEWIAGWLPRHCIGAILVSLPALAVYSHITSEFETNIHVTMFTGSAVLVAVVHYCNFCQLSSWMRSSLATIVGAGLLLLLHISLCQDSSIVMSPLDSAQNFSAQRNPCNSSVLQDGRRPASLIGKELILTFFLLLLLVWFLNREFEVSYRLHYHGDVEADLHRTKIQSMRDQADWLLRNIIPYHVAEQLKVSQTYSKNHDSGGVIFASIVNFSEFYEENYEGGKECYRVLNELIGDFDELLSKPDYNSIEKIKTIGATYMAASGLNTAQCQEGGHPQEHLRILFEFAKEMMRVVDDFNNNMLWFNFKLRVGFNHGPLTAGVIGTTKLLYDIWGDTVNIASRMDTTGVECRIQVSEESYRVLSKMGYDFDYRGTVNVKGKGQMKTYLYPKCTDNGVVPQHQLSISPDIRVQVDGSIGRSPTDEIANLVPSVQYSDKASLGSDDSTQAKEARLSSKRSWREPVKAEERFPFGKAIEKDSCEDIGVEEASELSKLNVSKSV
As for B1, the binding entry was “binds”.
